# Laboratory results as given in publication PMC5640428.
# T1: native KCC2 (K+-Cl- cotransporter KCC2) (mouse (endogenous in brain)) (UniProt Q91V14)
# T1 sequence: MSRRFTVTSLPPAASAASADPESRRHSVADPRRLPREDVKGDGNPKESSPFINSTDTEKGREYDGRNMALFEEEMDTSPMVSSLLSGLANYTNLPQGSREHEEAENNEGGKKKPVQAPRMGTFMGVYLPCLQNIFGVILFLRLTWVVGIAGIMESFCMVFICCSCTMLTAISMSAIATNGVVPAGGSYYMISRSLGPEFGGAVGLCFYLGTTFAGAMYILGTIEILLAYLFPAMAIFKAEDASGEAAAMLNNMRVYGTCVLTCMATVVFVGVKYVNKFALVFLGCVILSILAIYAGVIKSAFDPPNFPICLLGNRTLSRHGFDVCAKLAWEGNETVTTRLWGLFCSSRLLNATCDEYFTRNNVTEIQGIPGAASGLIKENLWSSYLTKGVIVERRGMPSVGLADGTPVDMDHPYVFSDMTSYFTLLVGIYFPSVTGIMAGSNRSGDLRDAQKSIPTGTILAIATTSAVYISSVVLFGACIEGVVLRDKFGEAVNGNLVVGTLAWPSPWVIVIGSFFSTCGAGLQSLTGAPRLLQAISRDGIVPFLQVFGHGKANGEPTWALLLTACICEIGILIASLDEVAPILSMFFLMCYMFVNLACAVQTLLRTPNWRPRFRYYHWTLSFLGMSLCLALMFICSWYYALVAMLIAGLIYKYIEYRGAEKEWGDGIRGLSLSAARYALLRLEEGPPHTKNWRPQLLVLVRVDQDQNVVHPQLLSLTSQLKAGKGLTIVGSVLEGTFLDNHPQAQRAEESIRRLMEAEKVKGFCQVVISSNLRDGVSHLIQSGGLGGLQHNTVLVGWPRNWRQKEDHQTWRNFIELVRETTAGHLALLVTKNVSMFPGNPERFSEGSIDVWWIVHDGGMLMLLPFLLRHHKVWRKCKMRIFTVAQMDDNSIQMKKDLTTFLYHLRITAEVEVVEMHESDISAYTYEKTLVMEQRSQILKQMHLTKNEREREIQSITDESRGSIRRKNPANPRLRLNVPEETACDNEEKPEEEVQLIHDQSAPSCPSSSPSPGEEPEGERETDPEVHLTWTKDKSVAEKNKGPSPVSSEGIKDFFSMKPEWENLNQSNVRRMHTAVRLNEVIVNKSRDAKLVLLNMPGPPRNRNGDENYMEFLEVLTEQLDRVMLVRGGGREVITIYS
# Biological target: T1, native KCC2 (K+-Cl- cotransporter KCC2) (mouse (endogenous in brain))
# Assay: affinity purification with mass spectrometry; anti-KCC2 antibodies (C-terminal, N-terminal KCC2b, pS940) cross-linked with DMP to GammaBind IgG beads; C12E9-solubilised whole-brain membrane fractions of P5 and P50 mice; 4 hr, 4°C; parallel IgG/IgY controls
row,Binder,binding
1,"APBA1 (protein, UniProt B2RUJ5 1-842) MNHLEGSAEVEVADEAPGGEVNESVEADLEHPEVVEGQQPSPSPPPPAGHEPEDHRGHPAPPPPPPPQEEEEEERGECLARSASTESGFHNHTDTAEGDVLAAARDGYEAERAQDADDESAYAVQYRPEAEEYTEQAEAEHVEAAQRRALPNHLHFHSLEHEEAMNAAYSGYVYTHRLFHRAEDEPYAEPYADYGGLQEHVYEEIGDAPELEARDGLRLYERERDEAAAYRQEALGARLHHYDERSDGESDSPEKEAEFAPYPRMDSYEQEEDIDQIVAEVKQSMSSQSLDKAAEDMPEAEQDLERAPTPGGGHPDSPGLPAPAGQQQRVVGTPGGSEVGQRYSKEKRDAISLAIKDIKEAIEEVKTRTIRSPYTPDEPKEPIWVMRQDISPTRDCDDQRPVDGDSPSPGSSSPLGAESSSIPLHPGDPTEASTNKESRKSLASFPTYVEVPGPCDPEDLIDGIIFAANYLGSTQLLSDKTPSKNVRMMQAQEAVSRIKTAQKLAKSRKKAPEGESQPMTEVDLFISTQRIKVLNADTQEPMMDHPLRTISYIADIGNIVVLMARRRMPRSNSQENVEASHPSQDGKRQYKMICHVFESEDAQLIAQSIGQAFSVAYQEFLRANGINPEDLSQKEYSDLLNTQDMYNDDLIHFSKSENCKDVFIEKQKGEILGVVIVESGWGSILPTVIIANMMHGGPAEKSGKLNIGDQIMSINGTSLVGLPLSTCQSIIKGLKNQSRVKLNIVRCPPVTTVLIRRPDLRYQLGFSVQNGIICSLMRGGIAERGGVRVGHRIIEINGQSVVATPHEKIVHILSNAVGEIHMKTMPAAMYRLLTAQEQPVYI",binds
2,"CMPK1 (protein, UniProt Q9DBP5 1-196) MKPLVVFVLGGPGAGKGTQCARIVEKYGYTHLSAGELLRDERKNPDSQYGELIEKYIKEGKIVPVEITISLLKREMDQTMAANAQKNKFLIDGFPRNQDNLQGWNKTMDGKADVSFVLFFDCNNEICIERCLERGKSSGRSDDNRESLEKRIQTYLESTKPIIDLYEEMGKVKKIDASKSVDEVFGEVVKIFDKEG",binds
3,"CRTC1 (protein, UniProt Q68ED7 1-630) MATSNNPRKFSEKIALHNQKQAEETAAFEEVMKDLSLTRAARLQLQKSQYLQLGPSRGQYYGGSLPNVNQIGSSSVDLAFQTPFQSSGLDTSRTTRHHGLVDRVYRERGRLGSPHRRPLSVDKHGRQADSCPYGTVYLSPPADTSWRRTNSDSALHQSTMTPSQAESFTGGSQDAHQKRVLLLTVPGMEDTGAETDKTLSKQSWDSKKAGSRPKSCEVPGINIFPSADQENTTALIPATHNTGGSLPDLTNIHFPSPLPTPLDPEEPPFPALTSSSSTGSLAHLGVGGAGQGMNTPSSSPQHRPAVVSPLSLSTEARRQQAQQVSPTLSPLSPITQAVAMDALSLEQQLPYAFFTQTGSQQPPPQPQPPPPPPPVSQQQPPPPQVSVGLPQGGPLLPSASLTRGPQLPPLSVTVPSTLPQSPTENPGQSPMGIDATSAPALQYRTSAGSPATQSPTSPVSNQGFSPGSSPQHTSTLGSVFGDAYYEQQMTARQANALSRQLEQFNMMENAISSSSLYNPGSTLNYSQAAMMGLSGSHGGLQDPQQLGYTGHGGIPNIILTVTGESPPSLSKELSSTLAGVSDVSFDSDHQFPLDELKIDPLTLDGLHMLNDPDMVLADPATEDTFRMDRL",binds
4,"CTNNA2 (protein, UniProt Q61301 1-953) MTSATSPIILKWDPKSLEIRTLTVERLLEPLVTQVTTLVNTSNKGPSGKKKGRSKKAHVLAASVEQATQNFLEKGEQIAKESQDLKEELVAAVEDVRKQGETMRIASSEFADDPCSSVKRGTMVRAARALLSAVTRLLILADMADVMRLLSHLKIVEEALEAVKNATNEQDLANRFKEFGKEMVKLNYVAARRQQELKDPHCRDEMAAARGALKKNATMLYTASQAFLRHPDVAATRANRDYVFKQVQEAIAGISSAAQATSPTDEAKGHTGIGELAAALNEFDNKIILDPMTFSEARFRPSLEERLESIISGAALMADSSCTRDDRRERIVAECNAVRQALQDLLSEYMNNTGRKEKGDPLNIAIDKMTKKTRDLRRQLRKAVMDHISDSFLETNVPLLVLIEAAKSGNEKEVKEYAQVFREHANKLVEVANLACSISNNEEGVKLVRMAATQIDSLCPQVINAALTLAARPQSKVAQDNMDVFKDQWEKQVRVLTEAVDDITSVDDFLSVSENHILEDVNKCVIALQEGDVDTLDRTAGAIRGRAARVIHIINAEMENYEAGVYTEKVLEATKLLSETVMPRFAEQVEVAIEALSANVPQPFEENEFIDASRLVYDGVRDIRKAVLMIRTPEELEDDSDFEQEDYDVRSRTSVQTEDDQLIAGQSARAIMAQLPQEEKAKIAEQVEIFHQEKSKLDAEVAKWDDSGNDIIVLAKQMCMIMMEMTDFTRGKGPLKNTSDVINAAKKIAEAGSRMDKLARAVADQCPDSACKQDLLAYLQRIALYCHQLNICSKVKAEVQNLGGELIVSGTGVQSTFTTFYEVDCDVIDGGRASQLSTHLPTCAEGAPIGSGSSDSSMLDSATSLIQAAKNLMNAVVLTVKASYVASTKYQKVYGTAAVNSPVVSWKMKAPEKKPLVKREKPEEFQTRVRRGSQKKHISPVQALSEFKAMDSF",binds
5,"FLII (protein, UniProt Q9JJ28 1-1271) MEATGVLPFVRGVDLSGNDFKGGYFPENVKAMTSLRWLKLNRTGLCYLPEELAALQKLEHLSVSHNHLTTLHGELSSLPSLRAIVARANSLKNSGVPDDIFKLDDLSVLDLSHNQLTECPRELENAKNMLVLNLSHNGIDSIPNQLFINLTDLLYLDLSENRLESLPPQMRRLVHLQTLVLNGNPLLHAQLRQLPAMMALQTLHLRNTQRTQSNLPTSLEGLSNLSDVDLSCNDLTRVPECLYTLPSLRRLNLSSNQIAELSLCIDQWVHLETLNLSRNQLTSLPSAICKLTKLKKLYLNSNKLDFDGLPSGIGKLTSLEEFMAANNNLELIPESLCRCPKLKKLVLNKNRLVTLPEAIHFLTEIQVLDVRENPSLVMPPKPADRTAEWYNIDFSLQNQLRLAGASPATVAAAAAVGSGSKDPLARKMRLRRRKDSAQDVQAKQVLKGMSDVAQEKNKNQEESIDARAPGGKVRRWDQGLEKPRLDYSEFFTEDVGQLPGLTIWQIENFVPVLVEEAFHGKFYEADCYIVLKTFLDDSGSLNWEIYYWIGGEATLDKKACSAIHAVNLRNYLGAECRTVREEMGDESEEFLQVFDNDISYIEGGTASGFYTVEDTHYVTRMYRVYGKKNIKLEPVPLKGSSLDPRFVFLLDQGLDIYVWRGAQATLSNTTKARLFAEKINKNERKGKAEITLLVQGQEPPGFWDVLGGEPSEIKNHVPDDFWPPQPKLYKVGLGLGYLELPQINYKLSVEHKKRPKVELMPGMRLLQSLLDTRCVYILDCWSDVFIWLGRKSPRLVRAAALKLGQELCGMLHRPRHTVVSRSLEGTEAQVFKAKFKNWDDVLTVDYTRNAEAVLQGQGLSGKVKRDTEKTDQMKADLTALFLPRQPPMPLAEAEQLMEEWNEDLDGMEGFVLEGRKFTRLPEEEFGHFYTQDCYVFLCRYWVPVEYEEEEKTEDKEGKASAEAREGEEAAAEAEEKQPEEDFQCIVYFWQGREASNMGWLTFTFSLQKKFESLFPGKLEVVRMTQQQENPKFLSHFKRKFIIHRGKRKVTQGTLQPTLYQIRTNGSALCTRCIQINTDSSLLNSEFCFILKVPFESEDNQGIVYAWVGRASDPDEAKLAEDILNTMFDASYSKQVINEGEEPENFFWVGIGAQKPYDDDAEYMKHTRLFRCSNEKGYFAVTEKCSDFCQDDLADDDIMLLDNGQEVYMWVGTQTSQVEIKLSLKACQVYIQHTRSKEHERPRRLRLVRKGNEQRAFTRCFHAWSTFRQAPA",binds
6,"FXYD7 (protein, UniProt P59648 1-80) MATPTQSPTNVPEETDPFFYDYATVQTVGMTLATIMFVLGIIIILSKKVKCRKADSRSESPTCKSCKSELPSSAPGGGGV",binds
7,"GRID2 (protein, UniProt Q61625 24-1007) DSIIHIGAIFDESAKKDDEVFRTAVGDLNQNEEILQTEKITFSVTFVDGNNPFQAVQEACELMNQGILALVSSIGCTSAGSLQSLADAMHIPHLFIQRSTAGTPRSGCGLTRSNRNDDYTLSVRPPVYLNEVILRVVTEYAWQKFIIFYDSEYDIRGIQEFLDKVSQQGMDVALQKVENNINKMITTLFDTMRIEELNRYRDTLRRAILVMNPATAKSFISEVVETNLVAFDCHWIIINEEINDVDVQELVRRSIGRLTIIRQTFPVPQNISQRCFRGNHRISSSLCDPKDPFAQNMEISNLYIYDTVLLLANAFHKKLEDRKWHSMASLSCIRKNSKPWQGGRSMLETIKKGGVNGLTGDLEFGENGGNPNVHFEILGTNYGEELGRGVRKLGCWNPVTGLNGSLTDKKLENNMRGVVLRVVTVLEEPFVMVSENVLGKPKKYQGFSIDVLDALSNYLGFNYEIYVAPDHKYGSPQEDGTWNGLVGELVFKRADIGISALTITPDRENVVDFTTRYMDYSVGVLLRRAEKTVDMFACLAPFDLSLWACIAGTVLLVGLLVYLLNWLNPPRLQMGSMTSTTLYNSMWFVYGSFVQQGGEVPYTTLATRMMMGAWWLFALIVISSYTANLAAFLTITRIESSIQSLQDLSKQTDIPYGTVLDSAVYQHVRMKGLNPFERDSMYSQMWRMINRSNGSENNVLESQAGIQKVKYGNYAFVWDAAVLEYVAINDPDCSFYTVGNTVADRGYGIALQHGSPYRDVFSQRILELQQSGDMDILKHKWWPKNGQCDLYSSVDAKQKGGALDIKSLAGVFCILAAGIVLSCLIAVLETWWSRRKGSRVPSKEDDKEIDLEHLHRRVNSLCTDDDSPHKQFSTSSIDLTPLDIDTLPTRQALEQISDFRNTHITTTTFIPEQIQTLSRTLSAKAASGFAFGSVPEHRTGPFRHRAPNGGFFRSPIKTMSSIPYQPTPTLGLNLGNDPDRGTSI",binds

# Results are given in words; binding and its absence hold for the method and conditions named. In cells and extracts the contact can be indirect. Here binding means that the protein was enriched with, or labelled near, the bait; the list need not be complete.
